Results on 3 molecules are retold here after publication doi:10.1101/2024.07.15.603576.

Results are given in words; binding and its absence hold for the method and conditions named. A result given as binding can be weak or reduced; the word gives no strength. For part of these data: In cells and extracts the contact can be indirect. For part of these data: Sequences can lack the tags named with a protein.

In assay [1] the target is SlEIL3 in pGBKT7 (pGBKT7-EIL3) (tomato (Solanum lycopersicum)). Put plainly: two-hybrid.
The target in assay [2] is EIL3-GFP (tomato (Solanum lycopersicum)). Put plainly: co-IP.
Assay [3] has as its target cLUC-SlEIL3 (tomato (Solanum lycopersicum)). The experiment in a line: split reporter.

B1: SlNAP2 in pGADT7 (pGADT7-NAP2) (protein, UniProt K4BNG7 1-275)
chain: MVGKNNSNHLPPGFRFHPTDEELIMYYLRNQATSKPCPSSIIPEVDVYKFDPWELPEKTEFGEKEWYFFTPRDRKYPNGVRPNRAAVSGYWKATGTDKGIYSGTKYVGIKKALVFYKGKPPKGIKTDWIMHEYRLSESRTQPTRPNGSMRLDDWVLCRIYKKKNLERAIEMMKVEEDTQEPQIMSVTNPIHEVVASNGQQTLKLPRTCSLSHLLEMDYFGSISQLFDDNNSYNTISQNNTLMTNVNGYVMPHQAMEKFQLGEVSQISMNPSYQFQ
With B1, the binding result in assay [1] is “binds”.

B2: NAP2-HA (protein, UniProt K4BNG7 1-275)
chain: B1 chain
In the case of B2, the binding entry in assay [2] is “binds”.

B3: SlNAP2-nLUC (protein, UniProt K4BNG7 1-275)
chain: B1 chain
For B3, in assay [3], the binding entry is reported as “binds”.
